Measurements: PubChem BioAssay AID1347076 (National Center for Advancing Translational Sciences (NCATS), 2019)
Out of some 400,000 compounds screened, about 13,000 (3.2%) were called active. Inconclusive results, whose numbers are uncertain, are shown with a selection of clear calls. Calls follow the shape of the dose curve; as a rule, active = well fitted cell-killing curve with a large enough effect; inconclusive = small, poorly fitted or top-dose-only effect, or effect the other way; inactive = flat fitted curve, though single readings scatter. Potencies beside an inconclusive call are fits to weak or partial responses and may not hold up.

Test: qHTS assay for MDR1-selective chemotherapeutics: Primary screen using the drug-selected MDR subline cells KB-V1; also: nearly all actives have a fitted effect of over 60% in size
Conditions: KB-V1 MDR cells viability, CellTiter-Glo, 72 h; series mostly up to 46.1 µM
Method in brief: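 Following 72 h at 37 degrees C with compound, KB-V1 cell viability was read by CellTiter-Glo luminescence, medium being phenol-red-free DMEM plus 10% FBS; concentration-response parameters came from normalized, curve-fitted qHTS data.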
Potency is read from the fitted curve at half-maximal effect.

| Compound | Potency |
| --- | --- |
| CC(C)OC(=O)Nc1ccc2c(c1)N(C(=O)N1CCN(C)CC1)c1ccccc1CC2 | inconclusive: 8.2 µM [cytotoxic, partial curve, poor fit] |
| C=CCN(c1cccc(C(F)(F)F)c1)S(=O)(=O)c1cccc(C(=O)OCC(=O)NCCC)c1 | inactive |
| COc1ccc(NC(=O)Nc2nnc(Cc3ccc(OC)c(OC)c3)s2)cc1 | inconclusive: 29.1 µM [rising, single point] |
| COc1ccc(-c2ccc(CN3C(C(C)C)C(=O)N(Cc4cn(CCC5OCCO5)nn4)CCS3(=O)=O)cc2)cc1 (stereo not given) | inconclusive: 29.1 µM [rising, single point] |
| CN(CC(=O)Nc1cccc(F)c1)C(=O)c1ccccc1Cc1ccccc1 | inconclusive: 14.6 µM [cytotoxic, partial curve, poor fit] |
| COc1ccc(NC(=O)COC(=O)CCNC(=O)c2ccco2)cc1Cl | inconclusive: 20.6 µM [rising, single point] |
| O=C1c2ccccc2NC(c2ccc(-c3ccc(Br)cc3)o2)N1O (stereo not given) | inconclusive: 6.51 µM [cytotoxic, full curve] |
| CC(C)[C@H]1CN=C2N(CCNC(=O)CCC3CCCCC3)[C@H](Cc3ccc(O)cc3)CN21 | inactive |
| CCN(CC)c1ccc(S(=O)(=O)N2CCCCC2)cc1NC(=O)CSCc1c(C)noc1C | inactive |
| CCOc1ccc(C(C)=O)cc1COC(=O)c1ccccc1C(=O)N(C)Cc1ccccc1 | inconclusive: 5.17 µM [cytotoxic, partial curve] |
| C=CCNc1oc(-c2cccc(F)c2)nc1C#N | inactive |
| O=C(Nc1nnc(S(=O)(=O)N2CCCC2)s1)c1ccccc1F | inconclusive: 0.0065 µM [cytotoxic, full curve, poor fit] |
| O=c1[nH]c(CSc2ncc(-c3ccc(F)cc3)n2Cc2ccco2)nc2ccccc12 | inconclusive: 11.6 µM [cytotoxic, partial curve, poor fit] |
| Cc1nonc1CC(=O)N1CCCC(C(=O)c2ccc(Cl)cc2)C1 (stereo not given) | inactive |
| CCN(C(=O)c1nn(-c2ccc(C)cc2)c(=O)c2c1c1ccccc1n2C)c1ccc(F)cc1 | inactive |
| O=C(CSc1ccc(-c2ccncc2)nn1)c1ccc(Cl)cc1 | inconclusive: 2.06 µM [cytotoxic, partial curve, poor fit] |
| CC(C)(CN1CCN(C(c2ccccc2)c2ccccc2)CC1)NS(=O)(=O)c1ccccc1 | inconclusive: 16.4 µM [cytotoxic, single point] |
| CC(=O)N1c2c(cc(Br)cc2S(=O)(=O)N2CCN(c3ccccc3F)CC2)CC1C (stereo not given) | inconclusive: 10.3 µM [cytotoxic, partial curve] |
| Cc1cc(Oc2ccc(C#N)cc2)nc(N2CCOCC2)n1 | inconclusive: 20.6 µM [cytotoxic, partial curve, poor fit] |
| Cc1c(O)ccc(C(=O)CN2CCN(c3ccccc3)CC2)c1O | inactive |
| COc1ccc(N=Nc2nc(-c3ccccc3)c(-c3ccccc3)[nH]2)cc1 | inconclusive: 23.1 µM [cytotoxic, partial curve, poor fit] |
| CC(C)S(=O)(=O)N1CCN(c2ccnc3cc(Cl)ccc23)CC1 | inconclusive: 5.8 µM [cytotoxic, full curve] |

| Compound | Potency |
| --- | --- |
| Nc1[nH]c(C(=O)c2ccccc2)c(-c2ccccc2Br)c1C(=O)c1ccccc1 | inconclusive: 23.1 µM [cytotoxic, partial curve, poor fit] |
| CCOc1ccc(-c2nnc(-c3ccco3)o2)cc1OCC | inconclusive: 10.3 µM [cytotoxic, partial curve] |
| COc1ccccc1NS(=O)(=O)c1cc([N+](=O)[O-])ccc1N/N=C/c1c[nH]c2ccccc12 | inconclusive: 29.1 µM [cytotoxic, single point] |
| O=C(NC1CCCC1)c1cc(-c2ccccc2)on1 | active: 16.4 µM |
| CN(CC(=O)Nc1cc(Cl)ccc1-n1cncn1)Cc1ccccc1N1CCOCC1 | inconclusive: 29.1 µM [cytotoxic, single point] |
| Cc1cc(C)n(CC(=O)NNC(=O)c2ccc(OC(F)(F)F)cc2)n1 | inactive |
| Cc1ccccc1S(=O)(=O)Cc1ccc(C(=O)NCCCN2CCN(C)CC2)o1 | inactive |
| Cn1cccc1C(=O)Nc1ccc(Cl)c(S(=O)(=O)N2CCCCC2)c1 | active: 20.6 µM |
| O=C1CC(c2ccco2)CC2=C1C1c3ccccc3C(=O)N1c1ccccc1N2 (stereo not given) | inconclusive: 20.6 µM [cytotoxic, partial curve, poor fit] |
| O=C(c1cccs1)N1CCN(c2ncc(C(F)(F)F)cc2Cl)CC1 | inconclusive: 16.4 µM [cytotoxic, single point] |
| COc1ccccc1NC(=O)CC(=O)c1cccc([N+](=O)[O-])c1 | inactive |
| O=C(NCC1CCCO1)c1c[nH]c2ccc(S(=O)(=O)Nc3ccc(F)cc3F)cc2c1=O (stereo not given) | inactive |
| O=C(c1ccco1)N1CCN(Cc2cn[nH]c2-c2cccc3ccccc23)CC1 | inconclusive: 18.4 µM [cytotoxic, single point] |
| COC(=O)c1cn(NC(=O)Cc2ccccc2Br)c(=O)c2ccccc12 | inconclusive: 18.4 µM [cytotoxic, partial curve, poor fit] |
| COc1cccc(CNS(=O)(=O)c2ccc(N3CCCCS3(=O)=O)cc2)c1 | inconclusive: 29.1 µM [cytotoxic, single point] |
| CCOC(=O)C1=C(CN2CCCCC2)NC(=O)NC1c1ccc(C)cc1 (stereo not given) | inactive |
| Nc1nc(N)c2snnc2n1 | inconclusive: 25.9 µM [cytotoxic, single point] |
| CC(=O)C1=C(C)NC(=O)NC1c1ccc(OC2CCCC2)cc1 (stereo not given) | inconclusive: 5.8 µM [cytotoxic, full curve] |
| Cc1ccc(OCC(=O)Nc2c(C)nn(-c3ccccc3)c2C)c(Br)c1 | inconclusive: 18.4 µM [cytotoxic, single point] |
| O=C(NCCCN1CCCC1)c1ccc2c(Cl)c3c(nc2c1)CCCC3 | inconclusive: 16.4 µM [cytotoxic, single point] |
| O=C(Nc1ccc(Oc2cccnc2)cc1)C1CCN(Cc2ccccc2)CC1 | inconclusive: 11.6 µM [cytotoxic, partial curve, poor fit] |
| CCOc1ccc(C(CC(=O)Nc2cc(C)c(Cl)cc2OC)N2Cc3ccccc3C2=O)cc1OC (stereo not given) | inconclusive: 14.6 µM [cytotoxic, single point] |

Filtered by structure, those above with a nitro group on carbon (two)

| Compound | Potency |
| --- | --- |
| COc1ccccc1NS(=O)(=O)c1cc([N+](=O)[O-])ccc1N/N=C/c1c[nH]c2ccccc12 | inconclusive: 29.1 µM [cytotoxic, single point] |
| COc1ccccc1NC(=O)CC(=O)c1cccc([N+](=O)[O-])c1 | inactive |

The listing continues.

| Compound | Potency |
| --- | --- |
| O=CNc1cc(-c2ccc(C(=O)NC3CC3)cc2)cn2c(-c3ccc(F)c(Cl)c3)cnc12 | inconclusive: 20.6 µM [cytotoxic, single point] |
| C#CCN(C(=O)c1cc(COc2ccc(C)c(C)c2)on1)C1CCCCC1 | inconclusive: 29.1 µM [cytotoxic, single point] |
| CCCn1c(C)cc(=O)c2cc(NC(=O)c3ccccn3)ccc21 | inconclusive: 20.6 µM [cytotoxic, single point] |
| Cc1cc(N2CCN(C)CC2)ccc1NC(=O)c1c2c(nc3ccccc13)CCN(Cc1ccccc1)C2 | inconclusive: 29.1 µM [cytotoxic, single point] |
| CC(C)=CCN1CCN(Cc2nc(-c3ccc(F)cc3)cs2)CC1CCO (stereo not given) | inconclusive: 8.2 µM [cytotoxic, partial curve] |
| CC(C)C[C@H]1CN([C@@H](CC(C)C)CN2CCCC2CN2C(=S)NC[C@@H]2Cc2ccccc2)C(=S)N1CCc1ccccc1 (stereo not given in full) | inconclusive: 4.61 µM [cytotoxic, full curve] |
| CC(=NNC(=S)N1CCN(c2ccccn2)CC1)c1ccccn1 | active: 7.31 µM |
| CCCCN1C(=O)C2Cc3c([nH]c4ccccc34)CN2C1=S (stereo not given) | inconclusive: 29.1 µM [cytotoxic, partial curve, poor fit] |
| COc1ccc(-c2cc(N)n(S(=O)(=O)c3ccc(F)cc3)n2)cc1OC | inactive |
| CCOc1ccc(NC(=O)Nc2cc(-c3ccccc3)sc2C(=O)OC)cc1 | inconclusive: 14.6 µM [cytotoxic, partial curve] |
| COc1ccc(CN2C(=O)C(CC(=O)NC(c3ccccc3)c3ccccc3)CC(C(=O)N(C)C)=C2C)cc1 (stereo not given) | inconclusive: 29.1 µM [cytotoxic, single point] |
| O=[N+]([O-])c1ccc2nc(NN=Cc3ccc(O)cc3)sc2c1 | inconclusive: 10.3 µM [cytotoxic, partial curve] |
| Cc1cc(C)cc(-n2ncc3c2CCCC3NC(=O)CCCn2cncn2)c1 (stereo not given) | inconclusive: 18.4 µM [cytotoxic, partial curve, poor fit] |
| Cc1ccc(S(=O)(=O)NC2CC2)cc1 | inactive |
| CC(C)N(C)c1ncnc2c1ncn2[C@H]1CN(Cc2ccc(Cl)cc2)C[C@@H](CO)O1 | inactive |
| O=C(CN1CCN(S(=O)(=O)c2ccc(Br)cc2)CC1)Nc1ccccc1C(=O)c1ccccc1 | inconclusive: 16.4 µM [cytotoxic, single point] |
| O=C(Nc1nnc(C2CC2)s1)c1ccccn1 | inconclusive: 5.17 µM [cytotoxic, full curve] |
| CCCCCCCCN1[C@@H](CC(=O)OC)c2cc(F)ccc2S1(=O)=O | inconclusive: 20.6 µM [cytotoxic, single point] |
| CCCCCCSC1=C(C#N)C(c2ccc(C)o2)CC(=O)N1 (stereo not given) | inconclusive: 18.4 µM [cytotoxic, partial curve] |
| O=P(CCCO)(Cc1ccccc1)Cc1ccccc1 | inconclusive: 9.2 µM [rising, partial curve, poor fit] |
| COc1ccc(NS(=O)(=O)c2cccc(C(=O)NCC(c3ccc(OC)cc3)N3CCCC3)c2)cc1 (stereo not given) | inactive |
